Our source for the binding values is article PMC8216470.

These are yes or no findings as the source states them, for the method shown.

The target in the test is T1, mouse ADAT3 (mouse) (UniProt Q6PAT0).
T1 sequence: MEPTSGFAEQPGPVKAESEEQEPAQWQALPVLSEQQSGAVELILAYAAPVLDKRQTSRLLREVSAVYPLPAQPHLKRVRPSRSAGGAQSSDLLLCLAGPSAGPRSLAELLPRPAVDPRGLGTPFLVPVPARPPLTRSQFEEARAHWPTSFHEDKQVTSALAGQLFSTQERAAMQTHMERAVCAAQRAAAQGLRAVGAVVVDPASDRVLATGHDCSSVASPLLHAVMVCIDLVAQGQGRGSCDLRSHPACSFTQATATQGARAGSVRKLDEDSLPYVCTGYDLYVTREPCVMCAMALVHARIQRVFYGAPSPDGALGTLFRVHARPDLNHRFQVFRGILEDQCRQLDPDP
Put plainly: SEC; oligomeric state of the protein produced alone, as assessed by size exclusion chromatography; both purified.

B1: mouse ADAT3 (protein, UniProt Q6PAT0 1-349)
chain: MEPTSGFAEQPGPVKAESEEQEPAQWQALPVLSEQQSGAVELILAYAAPVLDKRQTSRLLREVSAVYPLPAQPHLKRVRPSRSAGGAQSSDLLLCLAGPSAGPRSLAELLPRPAVDPRGLGTPFLVPVPARPPLTRSQFEEARAHWPTSFHEDKQVTSALAGQLFSTQERAAMQTHMERAVCAAQRAAAQGLRAVGAVVVDPASDRVLATGHDCSSVASPLLHAVMVCIDLVAQGQGRGSCDLRSHPACSFTQATATQGARAGSVRKLDEDSLPYVCTGYDLYVTREPCVMCAMALVHARIQRVFYGAPSPDGALGTLFRVHARPDLNHRFQVFRGILEDQCRQLDPDP
Take B1: the binding entry is given as “no binding”.
